The values that follow come from PMC11166458, “Caskin2 is a novel talin- and Abi1-binding protein that promotes cell motility” (Journal of Cell Science, 2024).

Sequences of proteins named here, by UniProt entry; tags and fusion partners are left off. A change or cut given only in a name is not applied to a line headed by its entry. A line that says so, or that is headed by a name, gives the form on record, which may keep a tag or linker.
UniProt Q8WXE0: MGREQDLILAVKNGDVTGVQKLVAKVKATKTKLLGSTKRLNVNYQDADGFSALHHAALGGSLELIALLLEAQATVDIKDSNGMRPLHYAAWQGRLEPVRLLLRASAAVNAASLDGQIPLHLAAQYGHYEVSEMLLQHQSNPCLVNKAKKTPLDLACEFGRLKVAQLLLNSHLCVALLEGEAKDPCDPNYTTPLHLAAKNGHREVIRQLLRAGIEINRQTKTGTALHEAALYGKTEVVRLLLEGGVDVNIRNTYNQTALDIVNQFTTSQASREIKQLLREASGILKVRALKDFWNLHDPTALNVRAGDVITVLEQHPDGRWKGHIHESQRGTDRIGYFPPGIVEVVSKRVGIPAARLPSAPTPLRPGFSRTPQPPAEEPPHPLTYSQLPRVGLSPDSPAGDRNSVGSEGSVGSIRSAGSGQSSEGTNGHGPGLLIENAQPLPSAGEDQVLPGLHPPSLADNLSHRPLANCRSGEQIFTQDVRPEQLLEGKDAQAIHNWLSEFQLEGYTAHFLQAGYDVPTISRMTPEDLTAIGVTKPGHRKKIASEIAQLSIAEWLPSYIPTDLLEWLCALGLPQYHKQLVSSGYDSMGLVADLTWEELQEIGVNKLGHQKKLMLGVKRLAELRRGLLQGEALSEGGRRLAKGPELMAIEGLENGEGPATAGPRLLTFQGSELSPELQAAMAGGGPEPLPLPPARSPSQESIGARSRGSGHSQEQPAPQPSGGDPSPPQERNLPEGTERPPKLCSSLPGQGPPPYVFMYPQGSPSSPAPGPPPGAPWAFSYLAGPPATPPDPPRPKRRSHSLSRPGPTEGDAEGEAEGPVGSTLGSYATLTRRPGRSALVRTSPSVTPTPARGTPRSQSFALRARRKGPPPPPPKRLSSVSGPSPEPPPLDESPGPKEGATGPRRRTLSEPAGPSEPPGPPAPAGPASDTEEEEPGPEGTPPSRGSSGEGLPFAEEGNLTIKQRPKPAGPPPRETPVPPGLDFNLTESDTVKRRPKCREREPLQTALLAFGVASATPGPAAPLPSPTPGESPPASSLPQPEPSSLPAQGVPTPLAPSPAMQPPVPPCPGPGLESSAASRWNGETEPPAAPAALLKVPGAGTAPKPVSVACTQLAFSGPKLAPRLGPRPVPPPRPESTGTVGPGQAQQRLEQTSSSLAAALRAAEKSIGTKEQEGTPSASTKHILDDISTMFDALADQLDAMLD
UniProt P62484: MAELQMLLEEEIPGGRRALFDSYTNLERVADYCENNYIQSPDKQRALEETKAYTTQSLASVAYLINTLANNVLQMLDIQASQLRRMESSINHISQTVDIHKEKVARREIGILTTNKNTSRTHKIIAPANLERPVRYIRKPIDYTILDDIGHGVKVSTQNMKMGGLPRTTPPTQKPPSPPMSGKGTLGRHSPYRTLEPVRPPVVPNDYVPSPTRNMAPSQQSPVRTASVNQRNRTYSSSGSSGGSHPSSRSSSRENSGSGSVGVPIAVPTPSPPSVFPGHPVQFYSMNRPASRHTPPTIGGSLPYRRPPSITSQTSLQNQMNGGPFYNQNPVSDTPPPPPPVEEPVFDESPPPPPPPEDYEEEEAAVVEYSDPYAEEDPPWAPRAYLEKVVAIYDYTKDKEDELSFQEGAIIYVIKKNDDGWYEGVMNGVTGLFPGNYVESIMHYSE
UniProt P62259: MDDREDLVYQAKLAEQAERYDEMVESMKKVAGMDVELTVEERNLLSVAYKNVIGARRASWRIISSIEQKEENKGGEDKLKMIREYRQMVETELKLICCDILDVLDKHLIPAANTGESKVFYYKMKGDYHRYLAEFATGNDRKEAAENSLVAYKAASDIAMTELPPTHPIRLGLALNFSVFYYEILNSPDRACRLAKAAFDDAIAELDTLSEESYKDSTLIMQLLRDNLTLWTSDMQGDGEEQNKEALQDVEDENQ
UniProt Q8CBW3: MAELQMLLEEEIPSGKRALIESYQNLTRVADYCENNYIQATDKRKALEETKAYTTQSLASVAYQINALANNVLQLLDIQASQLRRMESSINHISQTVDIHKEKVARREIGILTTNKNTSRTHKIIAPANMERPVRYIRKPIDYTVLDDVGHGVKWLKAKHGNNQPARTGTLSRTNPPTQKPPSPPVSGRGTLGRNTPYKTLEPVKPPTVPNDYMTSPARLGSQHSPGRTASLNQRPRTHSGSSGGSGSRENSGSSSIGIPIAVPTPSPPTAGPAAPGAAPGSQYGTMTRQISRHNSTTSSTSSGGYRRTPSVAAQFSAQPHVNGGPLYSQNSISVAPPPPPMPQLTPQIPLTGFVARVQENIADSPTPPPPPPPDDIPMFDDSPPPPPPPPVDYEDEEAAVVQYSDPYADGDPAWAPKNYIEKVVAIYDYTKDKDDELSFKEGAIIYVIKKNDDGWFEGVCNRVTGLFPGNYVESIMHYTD
UniProt Q9NYB9: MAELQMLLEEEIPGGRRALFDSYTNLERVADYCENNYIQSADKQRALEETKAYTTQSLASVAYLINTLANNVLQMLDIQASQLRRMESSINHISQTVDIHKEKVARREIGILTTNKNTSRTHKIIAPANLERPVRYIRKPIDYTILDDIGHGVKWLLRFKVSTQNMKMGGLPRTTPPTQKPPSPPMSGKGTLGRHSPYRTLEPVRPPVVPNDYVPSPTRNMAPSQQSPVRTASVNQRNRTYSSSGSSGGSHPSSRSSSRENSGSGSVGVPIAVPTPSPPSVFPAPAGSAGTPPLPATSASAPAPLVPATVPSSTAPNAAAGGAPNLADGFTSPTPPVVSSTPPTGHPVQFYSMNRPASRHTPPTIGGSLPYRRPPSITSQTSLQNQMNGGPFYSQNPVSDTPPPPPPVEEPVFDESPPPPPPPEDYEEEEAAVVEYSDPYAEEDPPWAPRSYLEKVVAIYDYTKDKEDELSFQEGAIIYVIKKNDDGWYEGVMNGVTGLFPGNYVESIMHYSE
HA–Abi1 (Q8IZP0-6, form named): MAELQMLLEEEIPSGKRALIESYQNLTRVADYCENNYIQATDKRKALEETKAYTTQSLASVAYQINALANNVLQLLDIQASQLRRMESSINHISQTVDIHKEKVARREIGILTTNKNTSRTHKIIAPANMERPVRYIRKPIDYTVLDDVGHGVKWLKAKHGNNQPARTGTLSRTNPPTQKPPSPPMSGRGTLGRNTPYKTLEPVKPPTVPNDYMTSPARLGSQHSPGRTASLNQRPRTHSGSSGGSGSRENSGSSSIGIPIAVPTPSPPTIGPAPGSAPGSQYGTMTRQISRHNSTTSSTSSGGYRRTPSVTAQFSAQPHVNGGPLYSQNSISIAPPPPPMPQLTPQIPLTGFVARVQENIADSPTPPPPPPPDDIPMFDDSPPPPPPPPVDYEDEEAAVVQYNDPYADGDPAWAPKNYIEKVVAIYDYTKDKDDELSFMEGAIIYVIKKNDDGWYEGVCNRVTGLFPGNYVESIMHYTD
UniProt P68510: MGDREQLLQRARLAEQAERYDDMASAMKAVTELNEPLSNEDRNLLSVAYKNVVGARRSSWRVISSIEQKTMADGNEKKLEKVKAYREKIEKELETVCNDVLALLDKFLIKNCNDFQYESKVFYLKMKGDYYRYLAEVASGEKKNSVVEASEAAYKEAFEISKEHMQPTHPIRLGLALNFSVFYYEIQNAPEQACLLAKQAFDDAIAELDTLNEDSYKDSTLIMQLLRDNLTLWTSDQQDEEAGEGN

Assay [1] has as its target Caskin2-FL–GFP (human) (UniProt Q8WXE0). The assay can be described thus: affinity purification with mass spectrometry; GFP-Trap of Caskin2-FL–GFP (GFP as control) stably expressed in GE11tetONβ1 cells; label-free quantitation.
The target is the same in assay [2]. Put plainly: affinity purification with mass spectrometry; GFP-Trap of Caskin2–GFP stably expressed in HaCaT cells; label-free quantitation.
Assay [3] has the same target. Put plainly: affinity purification with mass spectrometry; GFP-Trap of Caskin2-FL–GFP against Caskin2-PRR4A–GFP, transiently expressed in COS-7 cells (same samples as the co-IP with HA–Abi1); label-free quantitation.

These are yes or no findings as the source states them, for the method shown. In cells and extracts the contact can be indirect. Here binding means that the protein was enriched with, or labelled near, the bait; the list need not be complete.

Take “Abi2 (endogenous, GE11 cells) (from UniProt P62484 1-446)”: in the assay with Caskin2-FL–GFP (human) [1], the binding result is reported as “binds”. Still for that read-out and setting: the value for “Ywhae (endogenous, GE11 cells) (from UniProt P62259 1-255)” was “binds”; that for “Abi1 (endogenous, GE11 cells) (from UniProt Q8CBW3 1-481)” was “binds”. As to “ABI2 (endogenous, HaCaT cells) (from UniProt Q9NYB9 1-513)”, the binding result in the assay with Caskin2-FL–GFP (human) [2] is listed as “binds”. As for HA–Abi1 (from UniProt Q8IZP0-6 1-480), the binding entry with Caskin2-FL–GFP (human) [3] is “binds”. Consider “Ywhah (endogenous, GE11 cells) (from UniProt P68510 1-246)”, for which the binding entry with Caskin2-FL–GFP (human) [1] is reported as “binds”.
